According to PubChem BioAssay AID2685 (National Center for Advancing Translational Sciences (NCATS), 2010):
Some of the results follow. The main result of the screen is listed elsewhere. These columns were measured beside it and carry no call. Most of these compounds were active or inconclusive in the main read-out, so they are no random draw. Potencies come from curve fits of mixed quality, noted in brackets.

Assay: qHTS Assay for Lipid Storage Modulators in Drosophila S3 Cells;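 for cell number change: cells counted by Cell Tracker Red CMTPX staining in the red channel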
Settings: BODIPY lipid droplet fluorescence, 18-24 h; for cell number change: measured here: cell count max response, cells fed with added oleic acid
How it was run: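 Drosophila S3 cells loaded with oleic acid (400 uM, as added) and compounds at several concentrations; lipid droplets imaged by 488-nm laser-scanning cytometry, 500–530 nm intensity and object ratio to cell channel. Percent activity normalized to 20 uM Triacsin C.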

[1] = measured here: lipid fluorescence (Fed channel) AC50, cells fed with added oleic acid
[2] = measured here: cell number channel AC50, cells fed with added oleic acid

| SMILES | cell number change | AC50 [1] | AC50 [2] |
| --- | --- | --- | --- |
| COc1cc2ccc(=O)oc2c2ccoc12 | 17.7% | 8.2 µM [rising, partial curve] | – |
| O=C(Cn1ccc2ccccc2c1=O)NCC(=O)N1CCC2(CC1)OCCO2 | 13.6% | – | – |
| COc1ccccc1OCC(=O)N1CCCC(N2CCN(c3ccc(F)cc3)CC2)C1 (configuration not stated) | 26% | – | – |
| [O-]c1ccccc1-[n+]1c(-c2ccccc2)cc(-c2ccccc2)cc1-c1ccccc1 | -27.3% | 6.51 µM [falling, single point] | – |
| Brc1ccc(-[n+]2c(-c3ccccc3)cc(-c3ccccc3)cc2-c2ccccc2)cc1 | 6.93% | – | – |
| COc1cc(CN2CCN(c3cc(C)ccc3C)CC2)ccc1O | -8.77% | 6.51 µM [rising, single point] | – |
| CCOC(=O)C1(c2ccccc2)CCN(CC(=O)Nc2ccc(C)cc2)CC1 | – | 29.1 µM [rising, single point] | 1.84 µM [rising, partial curve, poor fit] |
| CCOc1cc2c(cc1OCC)-n1cccc1C(c1cccc(OCC)c1O)NC2 (configuration not stated) | – | 18.4 µM [rising, partial curve, poor fit] | – |
| CC1=CC2/C=C(\C)CCC(O)C(O)/C=C/C(=O)C23C(=O)NC(CC(C)C)C3C1C (configuration not stated) | -61.9% | 4.61 µM [falling, partial curve] | 32.6 µM [falling, single point] |
| COCCN1C(=O)NC(=O)/C(=C\c2ccc(F)cc2)C1=O | -27.2% | 7.31 µM [falling, single point] | – |
| O=C1NC(=O)C2(Cc3ccccc3N3CCCC32)C(=O)N1Cc1ccccc1 (configuration not stated) | 12.6% | 29.1 µM [falling, single point] | – |
| Nc1nonc1C(=O)N/N=C/c1ccc([N+](=O)[O-])o1 | -21.3% | – | – |
| COc1ccc(-n2c(O)c(/C=C/C=Nc3ccccc3)c(=O)[nH]c2=O)cc1 | -74.7% | 0.651 µM [falling, partial curve, poor fit] | 16.4 µM [falling, partial curve] |
| CCOC(=O)c1[nH]c2ccc(OC)cc2c1C(SCC(=O)O)c1ccc(C(F)(F)F)cc1 (configuration not stated) | -35.2% | 29.1 µM [falling, single point] | 23.1 µM [falling, single point] |
| Cc1ccc(-n2c(O)c(C=NC3CCCC3)c(=O)[nH]c2=O)c(C)c1 | 11.4% | 0.206 µM [falling, full curve, poor fit] | – |
| COc1ccc(/C=C/C(=O)NC(=S)N2C[C@H]3C[C@H](C2)c2cccc(=O)n2C3)cc1 | 16.5% | 0.58 µM [falling, single point] | – |
| Cc1c(O)ccc(C(=O)CN2CC(C)OC(C)C2)c1O (configuration not stated) | -13.4% | 0.00461 µM [falling, full curve, poor fit] | – |
| CC12CCCCC1(O)[N+](=O)C1=C(CCCC1)N2[O-] (configuration not stated) | – | 0.116 µM [falling, full curve, poor fit] | – |
| Cc1cc(C)nc(-n2c(C)nc3cc(Cl)ccc3c2=O)c1 | – | – | 4.11 µM [rising, single point] |
| CN(C)C1(CNC(=O)Cc2ccccc2F)CCCCC1 | 50.4% | 16.4 µM [rising, partial curve] | 25.9 µM [rising, single point] |

Some of the entries above in a different format:
SMILES | cell number change | AC50 [1] | AC50 [2]
Nc1nonc1C(=O)N/N=C/c1ccc([N+](=O)[O-])o1 | -21.3% | – | –
COc1ccc(-n2c(O)c(/C=C/C=Nc3ccccc3)c(=O)[nH]c2=O)cc1 | -74.7% | 0.651 µM [falling, partial curve, poor fit] | 16.4 µM [falling, partial curve]
CCOC(=O)c1[nH]c2ccc(OC)cc2c1C(SCC(=O)O)c1ccc(C(F)(F)F)cc1 (configuration not stated) | -35.2% | 29.1 µM [falling, single point] | 23.1 µM [falling, single point]
Cc1ccc(-n2c(O)c(C=NC3CCCC3)c(=O)[nH]c2=O)c(C)c1 | 11.4% | 0.206 µM [falling, full curve, poor fit] | –
COc1ccc(/C=C/C(=O)NC(=S)N2C[C@H]3C[C@H](C2)c2cccc(=O)n2C3)cc1 | 16.5% | 0.58 µM [falling, single point] | –

(cont.)

| SMILES | cell number change | AC50 [1] | AC50 [2] |
| --- | --- | --- | --- |
| COc1ccc(NC(=O)CN2CC=C(c3ccccc3)CC2)cc1S(=O)(=O)N1CCOCC1 | 50.5% | 20.6 µM [rising, partial curve] | 0.164 µM [rising, full curve, poor fit] |
| COC(=O)C1=C(c2cccc(NC(C)=O)c2)C[C@@H]2CC[C@H]1N2C | -5.9% | 18.4 µM [rising, single point] | – |
| Cn1cc(C(O)CN2CCCCC2)c2ccccc21 (configuration not stated) | 24.2% | 29.1 µM [rising, single point] | – |
| C1CCC2S[C@H]3CCCCC3NC2C1 (some centres not stated) | 3.67% | 0.116 µM [rising, full curve, poor fit] | 0.103 µM [rising, full curve, poor fit] |
| COCCNC(=O)CN1C2CCC1CC(O)(c1cccnc1)C2 (configuration not stated) | 8.8% | 5.8 µM [rising, single point] | – |
| CN(C)CCNC(=O)c1cccn(Cc2cc(C(F)(F)F)cc(C(F)(F)F)c2)c1=O | 44.9% | – | 20.6 µM [rising, single point] |
| CCC(=NCc1cccnc1)c1c(O)n(C2CCCCC2)c(=O)[nH]c1=O | -11.7% | – | – |
| O=C(Nc1ccccc1Cl)OC1CN2CCC1CC2 (configuration not stated) | 7.12% | 0.651 µM [falling, single point] | 0.411 µM [falling, single point] |
| C[N+]12CCC(CC1)C(C#N)(N1CCOCC1)C2 (configuration not stated) | – | 4.11 µM [falling, single point] | – |
| Cc1nn(Cc2ccccc2)c(Cl)c1C(=O)OCC(=O)NCC1CCCO1 (configuration not stated) | -1.04% | 0.0184 µM [rising, full curve] | – |
| CN1CCN(Cc2ccccc2C(F)(F)F)CC1 | -12.3% | 0.651 µM [rising, full curve, poor fit] | – |
| O=C1/C(=C/c2ccc([N+](=O)[O-])cc2)N2CCC1CC2 | -9.87% | 7.31 µM [falling, partial curve, poor fit] | – |
| CC(=NC(C)c1ccccc1)c1c(O)[nH]c(=O)[nH]c1=O (configuration not stated) | 12.4% | 0.00461 µM [falling, full curve, poor fit] | – |
| CC(C(=O)c1c[nH]c2ccccc12)N1CCOCC1 (configuration not stated) | -23.8% | 8.2 µM [falling, partial curve] | – |
| C=CCn1c(O)c(C(C)=NC2CC2)c(=O)[nH]c1=O | -18.1% | 2.59 µM [falling, full curve] | 0.0058 µM [falling, full curve, poor fit] |
| CCCNC(=O)N1[C@H]2CC[C@@H]1C(C(=O)OC)=C(c1cccc(C#N)c1)C2 | 4.48% | 1.64 µM [rising, full curve, poor fit] | – |
| CCOC(=O)[C@]1(C#N)[C@@H]2C=CC(C(C)=O)=CN2[C@@H](C(N)=O)[C@@H]1c1ccsc1 | – | 0.58 µM [falling, single point] | – |
| NC(=O)CN1C2CCC1CC(NC(=O)C1CC1)C2 (configuration not stated) | -101% | 29.1 µM [falling, partial curve] | 5.17 µM [falling, full curve] |
| O=C(Nc1cccnc1)c1c(O)c2c(n(Cc3ccccc3)c1=O)CCCC2 | -0.108% | – | – |
| C=CC[C@@H](C)CC(=O)C(CCCN=[N+]=[N-])SOOc1ccccc1 (some centres not stated) | 3.63% | 3.26 µM [rising, single point] | – |

| SMILES | cell number change | AC50 [1] | AC50 [2] |
| --- | --- | --- | --- |
| CN1C(=O)N(C)C(=O)C2(Cc3cc(NC(=O)c4ccccc4)ccc3N3CCCC32)C1=O (configuration not stated) | 14.1% | 10.3 µM [rising, partial curve] | – |
| CCc1nccc2c1[nH]c1ccccc12 | – | 25.9 µM [rising, single point] | – |
| O=C(CCn1c(=O)oc2ccccc21)Nc1cccc(Br)c1 | – | – | 1.16 µM [rising, full curve, poor fit] |
| Cc1ccc(-n2c(O)c(C=NCCN3CCOCC3)c(=O)[nH]c2=O)cc1 | -6.28% | 1.84 µM [falling, partial curve] | 0.00517 µM [falling, full curve, poor fit] |
| O=[N+]([O-])c1ccc(Cl)c([N+](=O)[O-])c1 | 0.116% | 29.1 µM [falling, single point] | – |
| Cc1ccn2nc(S(=O)(=O)Nc3c(F)cccc3F)nc2n1 | -1.25% | – | – |
| c1ccc2c(c1)CNc1ccccc1O2 | -12% | 1.3 µM [rising, partial curve] | – |
| COC(=O)C1=C(c2ccc3ccccc3c2)C[C@@H]2CC[C@H]1N2C(=O)NCc1ccc(F)cc1 | -50.8% | 8.2 µM [falling, partial curve] | 13 µM [falling, partial curve] |
| Cc1ccc(/C=C2/C(=O)NC(=O)N(CCc3ccc(F)cc3)C2=O)s1 | -39.1% | – | 0.366 µM [falling, full curve] |
| Cc1ccccc1-n1c(O)c(C=Nc2ccc(N(C)C)cc2)c(=O)[nH]c1=O | 66.7% | 29.1 µM [rising, single point] | 3.66 µM [rising, full curve] |
| CC(=O)c1cccc(OCC(O)CN2CC=C(c3ccccc3)CC2)c1 (configuration not stated) | -19.8% | 1.16 µM [falling, full curve, poor fit] | – |
| COc1ccc(C2N(c3cc(C)on3)C(=O)C3CCCN32)cc1 (configuration not stated) | 3.93% | – | – |
| Cn1c(O)c(C=Nc2ccc(Br)cc2)c(=O)n(C)c1=O | – | – | 0.00461 µM [falling, full curve, poor fit] |
| O=C(Nc1ccccc1)c1cccn(Cc2ccccc2)c1=O | – | 0.651 µM [rising, partial curve, poor fit] | 0.82 µM [rising, full curve] |
| NC1CCCCC1N=Cc1c(O)n(Cc2ccc(F)cc2)c(=O)[nH]c1=O (configuration not stated) | – | 16.4 µM [falling, single point] | – |
| CCN(CC)P(=O)(Oc1cccc(C)c1)N(CC)CC | -12.7% | 18.4 µM [falling, partial curve] | 0.517 µM [falling, partial curve] |
| COCCOC(=O)C1=C(N)Oc2c(c(=O)oc3ccccc23)C1c1ccncc1 (configuration not stated) | – | 6.51 µM [rising, partial curve] | – |
| CCc1ccc(CN2CCN(Cc3cc(Br)ccc3O)CC2)cc1 | -36.2% | 29.1 µM [falling, single point] | 29.1 µM [falling, single point] |
